From PubChem BioAssay AID662 (National Center for Advancing Translational Sciences (NCATS), 2007)
The list shows a part of the results. Shown are side measurements of this screen, not its main read-out; they come without a call. The list favours compounds with an active or inconclusive main result. The note in brackets gives the kind of curve behind each potency; many fits are weak.

test: Cell signaling CRE-BLA (Fsk stim); settings: CHO CRE-bla reporter (cAMP response element driving beta-lactamase), forskolin EC10, beta-lactamase ratio; measured here: 460 nm blue channel
Method in brief: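 Forskolin analogue NKH 477 at EC10 stimulated CRE-driven beta-lactamase in CHO cells alongside compound dilution series. Beta-lactamase was measured with CCF4, excitation 405 nm, emission ratio 460/530 nm.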

Structure (SMILES) | AC50
Cc1ccccc1CS(=O)(=O)Cc1ccc(C(=O)NCc2ccccn2)o1 | 2 µM [falling, partial curve]
CCOC(=O)N1CCN(C(=O)c2ccc(CN(c3ccc(C)c(C)c3)S(C)(=O)=O)cc2)CC1 | 20 µM [falling, single point]
O=C(C1CCCN(S(=O)(=O)c2cccc3cccnc23)C1)N1CCN(c2ccc(F)cc2)CC1 (stereo unspecified) | 7.94 µM [falling, partial curve]
O=c1c(-c2ccc(Cl)cc2)nc2cnc(N3CCNCC3)nc2n1-c1ccccc1 | 1.58 µM [rising, full curve]
Cc1cc(C)nc(SCc2nnc(SCC(=O)OC3CCCCC3)o2)n1 | 25.1 µM [rising, single point]
Cc1ccc(C)c(N2CCN(S(=O)(=O)c3ccc4c(c3)CCC(=O)N4)CC2)c1 | 2.51 µM [rising, partial curve]
CCOC(=O)c1ccc(N2C(=O)c3n[nH]c(C)c3C2c2cccnc2)cc1 (stereo unspecified) | 25.1 µM [rising, single point]
CCCC(=O)NCCc1c2n(c3ccc(OC)cc13)Cc1ccccc1-2 | 25.1 µM [rising, single point]
NC(=O)C[C@@H]1N[C@]2(C(=O)Nc3ccccc32)[C@@H]2C(=O)N(c3cc(C(F)(F)F)ccc3Cl)C(=O)[C@H]12 | 0.00398 µM [falling, full curve, poor fit]
c1cncc(-c2nc(NCCN3CCOCC3)c3ccccc3n2)c1 | 12.6 µM [rising, partial curve]
O=C(c1cccs1)c1no[n+]([O-])c1C(=O)c1cccs1 | 10 µM [falling, partial curve]
Cc1ccc(-n2c(=O)cc(N3CC(C)CC(C)C3)[nH]c2=O)cc1 (stereo unspecified) | 25.1 µM [rising, single point]
CCC(Oc1ccccc1)C(=O)Nc1nc2ccccc2[nH]1 (stereo unspecified) | 5.01 µM [falling, single point]
COc1ccc(NC(=O)CCC2COc3ccccc3O2)c(OC)c1 (stereo unspecified) | 5.01 µM [falling, single point]
COc1ccc(NC(=O)c2ccccc2NS(C)(=O)=O)cc1OC | 10 µM [rising, single point]
CCc1nnc(NC(=O)CCC(=O)NC2CCCCC2)s1 | 5.01 µM [falling, full curve, poor fit]
COc1ccc(-c2cn3cccnc3n2)cc1NC(=O)c1ccc(Br)o1 | 10 µM [rising, single point]
COc1ccc(Nc2nc(N)nc(SCc3nnc(C)s3)n2)cc1 | 12.6 µM [rising, single point]
Cc1nn(C)c(C)c1S(=O)(=O)N1CCc2ccccc21 | 0.02 µM [falling, full curve]
c1ccc(-c2nnc(CSc3nnc(-c4cccs4)o3)o2)cc1 | 5.01 µM [falling, partial curve]
COCCn1c(=O)c(-c2ccccc2)nc2cnc(Nc3ccccc3)nc21 | 7.94 µM [rising, partial curve]
COc1ccc(C2C(C(=O)N3CCOCC3)CCC(=O)N2c2ccc(OC)cc2)cc1 (stereo unspecified) | 0.126 µM [falling, full curve, poor fit]

Single values from the results shown:
AC50, `Cc1nn(C)c(C)c1S(=O)(=O)N1CCc2ccccc21` is entered as 0.02 µM [falling, full curve]
AC50, `Cc1ccc(C)c(N2CCN(S(=O)(=O)c3ccc4c(c3)CCC(=O)N4)CC2)c1` is entered as 2.51 µM [rising, partial curve]
AC50, `COc1ccc(C2C(C(=O)N3CCOCC3)CCC(=O)N2c2ccc(OC)cc2)cc1` (stereo unspecified) is entered as 0.126 µM [falling, full curve, poor fit]
AC50, `O=C(c1cccs1)c1no[n+]([O-])c1C(=O)c1cccs1` is entered as 10 µM [falling, partial curve]

Additional results:

Structure (SMILES) | AC50
COc1ccc(CCNc2oc(-c3ccccc3OC)nc2C#N)cc1OC | 12.6 µM [rising, partial curve]
O=C(c1ccc(COc2ccc3c(c2)CCC3)o1)N1CCN(c2ccccc2)CC1 | 3.16 µM [rising, single point]
CCn1cc(C(=O)N2CCn3c(nc4ccccc43)C2)c(=O)c2ccc(C)nc21 | 7.94 µM [rising, partial curve]
N#CC(c1nc2ccccc2nc1N1CCCC1)S(=O)(=O)c1cccs1 (stereo unspecified) | 10 µM [rising, single point]
N#CCCN(C1CCCCC1)S(=O)(=O)CCOc1ccccc1 | 25.1 µM [rising, single point]
Oc1ccc(Cl)cc1/C=N/c1nc2ccccc2[nH]1 | 0.398 µM [rising, partial curve]
COc1cc(-c2nnc(-c3ccncc3)o2)ccc1OCc1ccccc1 | 25.1 µM [falling, single point]
COc1cc(S(=O)(=O)N2CCN(c3ccccc3F)CC2)ccc1Cl | 6.31 µM [falling, partial curve, poor fit]
CCCOc1nc(N)c(C#N)c(-c2ccccc2F)c1C#N | 5.01 µM [rising, full curve]
CCNc1ncc2nc(-c3ccccc3)c(=O)n(-c3ccc(OC)cc3)c2n1 | 10 µM [rising, partial curve]
CCC(c1nnnn1Cc1cccs1)N1CCN(c2nc3ccccc3s2)CC1 (stereo unspecified) | 15.8 µM [falling, single point]
Cn1nc(-c2ccc(Cl)cc2)c2cc(C(=O)NCc3ccco3)sc21 | 12.6 µM [rising, partial curve]
Cc1ccc(S(=O)(=O)N2CCC(C(=O)OCC(=O)N3CCc4ccccc43)CC2)cc1 | 3.98 µM [falling, single point]
C[C@H](NC[C@H](O)CP(=O)(O)CC1CCCCC1)c1ccc(Cl)c(Cl)c1 | 25.1 µM [falling, single point]
CN(C)c1ccc(C2C=C(c3ccc(Cl)cc3OC(F)F)Nc3ncnn32)cc1 (stereo unspecified) | 15.8 µM [rising, partial curve]
COCCN1CN=C(Nc2nc3ccccc3s2)NC1 | 12.6 µM [falling, single point]
N#Cc1c(N)nc2c(c1-c1ccco1)CCCCC2 | 10 µM [rising, partial curve]
O=C(C1CCN(S(=O)(=O)c2cccc3nsnc23)CC1)N1CCc2ccccc2C1 | 3.98 µM [falling, single point]
CN(C)c1nc(Oc2ccc(=O)n(-c3ccccc3)n2)nc(N2CCOCC2)n1 | 20 µM [rising, single point]
Nc1cc(=O)nc(SCc2ccccc2)n1Cc1ccco1 | 3.16 µM [falling, single point]
Cc1ccc(S(=O)(=O)c2cccc(S(=O)(=O)N3CCCC3)c2)cc1S(=O)(=O)N1CCCC1 | 20 µM [falling, single point]
OC(CN1C2=NCCN2c2ccccc21)c1ccc2c(c1)OCO2 (stereo unspecified) | 10 µM [rising, partial curve]

Structure (SMILES) | AC50
CCOc1cc(N2CCOCC2)c(OCC)cc1NC(=O)c1nc2nc(C)cc(C)n2n1 | 6.31 µM [rising, full curve]
c1ccc(CCc2ccccc2-c2nc(-c3ccccn3)no2)cc1 | 31.6 µM [falling, single point]
Brc1ccc(NCc2nnc3n2CCCCC3)cc1 | 25.1 µM [rising, single point]
Cc1cc2cc(CN(Cc3cccs3)Cc3nnnn3CC3CCCO3)c(=O)[nH]c2cc1C (stereo unspecified) | 12.6 µM [rising, single point]
CCOc1ccc(CC(=O)Nc2c(C(N)=O)oc3ccc(Br)cc23)cc1OCC | 6.31 µM [rising, partial curve]
Cn1c(SCc2nc3ccccc3n2CCO)nc2ccccc21 | 20 µM [rising, single point]
CC(C)(C)C(=O)[C@@H]1[C@@H]2C(=O)N(c3ccc4c(c3)OCCO4)C(=O)[C@@H]2C2c3ccccc3C=CN21 (stereo partly specified) | 15.8 µM [falling, partial curve]
COc1ccc(-c2cc(CCCC(=O)NCCc3cc(OC)ccc3OC)no2)cc1 | 5.01 µM [rising, full curve, poor fit]
Cc1cc(=O)[nH]c(S/C=C/c2ccccc2)n1 | 10 µM [falling, partial curve]
CC(C(=O)OCC(=O)Nc1ccc2c(c1)OCO2)N1C(=O)c2ccccc2C1=O (stereo unspecified) | 3.98 µM [falling, partial curve, poor fit]
CN(C)c1nc(-c2cccc(NS(C)(=O)=O)c2)nc2ccccc12 | 12.6 µM [rising, partial curve]
O=C(Cc1cc(=O)[nH]c(=O)[nH]1)NCCN1CCOCC1 | 10 µM [rising, partial curve]
FC(F)(F)c1cc(-c2ccccc2)nc(-n2cncn2)n1 | 15.8 µM [rising, single point]
O=c1c2[nH]c3ccccc3c2ncn1CCC1=CCCCC1 | 0.316 µM [rising, full curve]
CCCP(=O)(CC(=O)O)c1ccccc1 (stereo unspecified) | 1.58 µM [rising, partial curve]
N#CCCn1c(=O)c(-c2ccccc2)nc2cnc(Nc3ccccc3)nc21 | 5.01 µM [rising, partial curve]
COc1cccc(-c2nn(C)c3sc(C(=O)N4CCOCC4)cc23)c1 | 12.6 µM [rising, partial curve]
COc1ccc(-n2c(Cc3cccn3C)nnc2SCC(=O)NCc2ccco2)cc1 | 12.6 µM [rising, single point]
COc1ccccc1CNc1ccnc(-c2cccc(NS(C)(=O)=O)c2)n1 | 6.31 µM [rising, partial curve]
CCN(CC)S(=O)(=O)c1ccc(Nc2cc(C)nc3ncnn23)cc1 | 25.1 µM [rising, single point]
CC(C)(C)NC(=O)[C@@H]1C[C@@H]2CCCC[C@@H]2CN1C[C@@H](O)[C@H](Cc1ccccc1)NC(=O)[C@H](CC(N)=O)NC(=O)c1ccc2ccccc2n1 | 31.6 µM [falling, single point]
C/C(Nc1ccc(F)cc1)=C(/C#N)C(N)=O | 2.51 µM [falling, partial curve, poor fit]
